The list shows a part of the results. Most entries show no effect beyond the scatter of the controls.

Chains of the proteins cited; added tags and fusions are not shown. Lines headed by an entry give the natural chain unless they say otherwise; changes in a name come on top.
UniProt Q14573, whole entry: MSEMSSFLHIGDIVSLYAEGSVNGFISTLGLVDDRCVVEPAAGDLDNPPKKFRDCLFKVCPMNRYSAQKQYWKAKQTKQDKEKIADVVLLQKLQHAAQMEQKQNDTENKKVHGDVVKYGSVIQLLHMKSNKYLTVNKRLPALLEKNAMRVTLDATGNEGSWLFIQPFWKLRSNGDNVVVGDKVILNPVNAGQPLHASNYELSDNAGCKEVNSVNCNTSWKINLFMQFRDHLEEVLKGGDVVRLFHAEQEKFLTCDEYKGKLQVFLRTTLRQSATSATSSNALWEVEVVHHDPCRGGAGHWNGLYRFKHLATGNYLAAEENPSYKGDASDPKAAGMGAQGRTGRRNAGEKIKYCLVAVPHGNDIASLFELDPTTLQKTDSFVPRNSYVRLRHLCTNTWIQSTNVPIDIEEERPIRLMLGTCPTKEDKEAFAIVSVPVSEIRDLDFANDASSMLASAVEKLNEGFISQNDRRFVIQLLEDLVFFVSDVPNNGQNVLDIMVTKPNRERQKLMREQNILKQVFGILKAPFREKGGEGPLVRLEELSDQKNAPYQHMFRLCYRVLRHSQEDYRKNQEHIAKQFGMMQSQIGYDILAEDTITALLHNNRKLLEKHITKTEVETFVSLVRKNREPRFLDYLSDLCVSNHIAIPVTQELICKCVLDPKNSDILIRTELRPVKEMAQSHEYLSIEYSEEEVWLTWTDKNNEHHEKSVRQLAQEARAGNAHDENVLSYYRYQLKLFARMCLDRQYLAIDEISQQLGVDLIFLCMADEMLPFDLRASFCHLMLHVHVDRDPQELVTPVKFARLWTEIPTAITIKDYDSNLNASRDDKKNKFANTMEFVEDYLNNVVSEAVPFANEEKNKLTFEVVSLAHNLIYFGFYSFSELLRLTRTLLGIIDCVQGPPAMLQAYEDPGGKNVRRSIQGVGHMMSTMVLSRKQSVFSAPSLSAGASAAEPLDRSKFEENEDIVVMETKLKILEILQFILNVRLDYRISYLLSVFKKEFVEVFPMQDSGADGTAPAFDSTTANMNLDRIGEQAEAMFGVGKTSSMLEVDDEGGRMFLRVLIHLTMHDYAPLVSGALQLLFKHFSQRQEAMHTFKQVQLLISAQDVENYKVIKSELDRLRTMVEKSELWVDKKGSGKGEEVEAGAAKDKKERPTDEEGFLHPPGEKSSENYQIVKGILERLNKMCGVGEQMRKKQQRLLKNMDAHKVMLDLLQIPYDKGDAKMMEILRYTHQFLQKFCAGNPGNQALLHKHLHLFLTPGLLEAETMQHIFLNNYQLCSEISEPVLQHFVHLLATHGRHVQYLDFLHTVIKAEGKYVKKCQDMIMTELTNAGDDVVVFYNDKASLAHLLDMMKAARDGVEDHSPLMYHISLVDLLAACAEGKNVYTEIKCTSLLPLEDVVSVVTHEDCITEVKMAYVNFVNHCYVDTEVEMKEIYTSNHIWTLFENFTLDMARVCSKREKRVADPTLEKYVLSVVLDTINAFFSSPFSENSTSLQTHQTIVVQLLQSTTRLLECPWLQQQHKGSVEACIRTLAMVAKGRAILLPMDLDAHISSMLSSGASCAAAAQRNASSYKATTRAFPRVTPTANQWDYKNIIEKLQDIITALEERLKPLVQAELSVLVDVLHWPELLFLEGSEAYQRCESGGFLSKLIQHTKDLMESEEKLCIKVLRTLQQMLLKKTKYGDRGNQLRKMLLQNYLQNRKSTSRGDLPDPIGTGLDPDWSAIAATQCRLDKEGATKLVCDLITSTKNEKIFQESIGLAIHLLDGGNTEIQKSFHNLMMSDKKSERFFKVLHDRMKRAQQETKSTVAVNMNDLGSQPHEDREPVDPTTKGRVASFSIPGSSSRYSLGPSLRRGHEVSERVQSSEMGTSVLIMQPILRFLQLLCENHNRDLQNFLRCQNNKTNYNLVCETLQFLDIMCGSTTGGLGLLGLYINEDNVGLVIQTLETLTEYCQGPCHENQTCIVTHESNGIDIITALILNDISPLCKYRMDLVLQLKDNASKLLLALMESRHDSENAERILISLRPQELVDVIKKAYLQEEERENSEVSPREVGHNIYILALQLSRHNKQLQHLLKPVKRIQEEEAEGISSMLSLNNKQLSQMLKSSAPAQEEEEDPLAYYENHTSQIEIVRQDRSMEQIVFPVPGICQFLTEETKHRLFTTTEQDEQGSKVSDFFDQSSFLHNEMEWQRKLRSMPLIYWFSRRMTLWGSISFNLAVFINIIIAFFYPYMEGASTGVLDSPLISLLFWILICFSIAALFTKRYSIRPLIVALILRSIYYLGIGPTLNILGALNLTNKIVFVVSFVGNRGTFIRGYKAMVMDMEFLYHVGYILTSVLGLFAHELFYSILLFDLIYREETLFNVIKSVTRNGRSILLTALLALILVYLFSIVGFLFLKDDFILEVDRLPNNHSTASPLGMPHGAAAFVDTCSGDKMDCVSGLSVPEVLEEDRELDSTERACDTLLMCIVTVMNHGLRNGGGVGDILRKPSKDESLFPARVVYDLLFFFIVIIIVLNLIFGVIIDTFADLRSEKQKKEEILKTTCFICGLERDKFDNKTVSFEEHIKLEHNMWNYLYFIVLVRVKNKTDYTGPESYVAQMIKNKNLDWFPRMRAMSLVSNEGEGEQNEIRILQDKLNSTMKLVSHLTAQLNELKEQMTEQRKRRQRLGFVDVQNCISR
UniProt Q14651: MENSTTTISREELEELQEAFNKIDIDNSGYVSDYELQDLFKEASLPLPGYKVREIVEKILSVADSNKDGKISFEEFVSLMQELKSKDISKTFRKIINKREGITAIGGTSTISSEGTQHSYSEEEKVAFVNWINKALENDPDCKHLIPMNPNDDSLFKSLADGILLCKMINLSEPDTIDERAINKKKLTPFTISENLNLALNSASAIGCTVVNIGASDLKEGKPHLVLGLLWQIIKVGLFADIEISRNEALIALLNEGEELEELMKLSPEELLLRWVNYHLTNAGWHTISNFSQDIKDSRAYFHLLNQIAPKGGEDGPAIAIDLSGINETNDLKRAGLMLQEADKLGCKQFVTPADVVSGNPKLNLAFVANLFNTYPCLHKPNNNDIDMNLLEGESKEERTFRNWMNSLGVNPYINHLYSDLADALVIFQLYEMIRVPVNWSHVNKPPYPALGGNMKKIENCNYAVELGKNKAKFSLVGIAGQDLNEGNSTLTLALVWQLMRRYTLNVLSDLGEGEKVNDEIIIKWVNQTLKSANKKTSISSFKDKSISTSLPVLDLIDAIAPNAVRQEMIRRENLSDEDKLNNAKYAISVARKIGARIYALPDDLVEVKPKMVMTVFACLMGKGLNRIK
UniProt Q13474: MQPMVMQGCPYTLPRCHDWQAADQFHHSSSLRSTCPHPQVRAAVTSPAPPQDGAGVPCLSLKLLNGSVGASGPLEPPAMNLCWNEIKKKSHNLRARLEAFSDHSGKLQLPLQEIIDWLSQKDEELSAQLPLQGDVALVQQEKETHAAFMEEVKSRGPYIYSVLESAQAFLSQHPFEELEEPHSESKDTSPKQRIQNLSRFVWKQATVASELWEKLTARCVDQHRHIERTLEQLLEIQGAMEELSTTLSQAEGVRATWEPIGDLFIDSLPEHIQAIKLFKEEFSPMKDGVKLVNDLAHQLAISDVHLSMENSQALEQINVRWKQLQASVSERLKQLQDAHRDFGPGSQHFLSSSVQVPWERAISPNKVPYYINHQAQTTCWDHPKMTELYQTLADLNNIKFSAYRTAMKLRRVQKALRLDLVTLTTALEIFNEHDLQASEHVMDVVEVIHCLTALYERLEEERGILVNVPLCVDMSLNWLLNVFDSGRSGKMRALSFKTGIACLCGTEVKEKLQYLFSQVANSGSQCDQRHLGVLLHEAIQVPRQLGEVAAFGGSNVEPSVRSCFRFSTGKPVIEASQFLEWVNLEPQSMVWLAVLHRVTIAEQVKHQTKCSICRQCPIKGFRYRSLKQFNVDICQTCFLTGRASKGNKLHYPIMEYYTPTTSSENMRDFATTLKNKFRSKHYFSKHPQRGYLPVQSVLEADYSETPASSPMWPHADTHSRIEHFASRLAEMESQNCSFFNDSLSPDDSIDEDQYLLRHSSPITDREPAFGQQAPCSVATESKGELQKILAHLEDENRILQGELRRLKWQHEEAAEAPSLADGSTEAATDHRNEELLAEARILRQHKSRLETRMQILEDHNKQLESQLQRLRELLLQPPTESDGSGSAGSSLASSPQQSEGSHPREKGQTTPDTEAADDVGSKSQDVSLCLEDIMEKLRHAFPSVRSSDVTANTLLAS
UniProt Q13442: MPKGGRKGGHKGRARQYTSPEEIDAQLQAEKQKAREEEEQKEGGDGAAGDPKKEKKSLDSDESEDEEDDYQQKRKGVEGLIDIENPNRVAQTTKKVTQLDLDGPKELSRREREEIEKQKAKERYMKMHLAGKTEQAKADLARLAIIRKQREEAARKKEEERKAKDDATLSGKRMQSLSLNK
UniProt Q15046, whole entry, looked up: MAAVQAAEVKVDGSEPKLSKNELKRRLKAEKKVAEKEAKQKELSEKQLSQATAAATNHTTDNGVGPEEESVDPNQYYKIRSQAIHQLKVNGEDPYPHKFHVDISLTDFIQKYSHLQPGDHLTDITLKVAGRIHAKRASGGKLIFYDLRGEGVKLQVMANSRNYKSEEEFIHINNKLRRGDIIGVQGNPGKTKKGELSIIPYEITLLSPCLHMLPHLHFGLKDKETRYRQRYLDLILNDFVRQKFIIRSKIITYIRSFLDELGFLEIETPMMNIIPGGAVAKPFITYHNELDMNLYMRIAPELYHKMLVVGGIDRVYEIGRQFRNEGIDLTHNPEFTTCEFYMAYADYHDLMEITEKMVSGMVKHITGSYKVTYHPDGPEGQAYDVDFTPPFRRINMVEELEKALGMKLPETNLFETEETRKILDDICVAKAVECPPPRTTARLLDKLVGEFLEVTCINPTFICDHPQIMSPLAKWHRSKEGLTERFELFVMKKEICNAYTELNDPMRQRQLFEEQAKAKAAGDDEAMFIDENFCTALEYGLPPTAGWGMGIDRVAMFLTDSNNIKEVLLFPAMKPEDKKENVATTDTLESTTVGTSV
UniProt Q14240, whole entry: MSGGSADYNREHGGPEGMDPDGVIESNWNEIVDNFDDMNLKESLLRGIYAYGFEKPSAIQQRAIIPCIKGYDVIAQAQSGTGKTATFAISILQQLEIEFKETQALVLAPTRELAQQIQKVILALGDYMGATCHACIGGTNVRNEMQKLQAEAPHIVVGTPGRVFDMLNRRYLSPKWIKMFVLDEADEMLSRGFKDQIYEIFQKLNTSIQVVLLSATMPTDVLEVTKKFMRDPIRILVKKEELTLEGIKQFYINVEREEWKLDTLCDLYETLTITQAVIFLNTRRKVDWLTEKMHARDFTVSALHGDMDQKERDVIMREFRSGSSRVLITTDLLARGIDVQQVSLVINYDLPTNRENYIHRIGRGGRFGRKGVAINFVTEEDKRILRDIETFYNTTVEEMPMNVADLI
UniProt Q14566: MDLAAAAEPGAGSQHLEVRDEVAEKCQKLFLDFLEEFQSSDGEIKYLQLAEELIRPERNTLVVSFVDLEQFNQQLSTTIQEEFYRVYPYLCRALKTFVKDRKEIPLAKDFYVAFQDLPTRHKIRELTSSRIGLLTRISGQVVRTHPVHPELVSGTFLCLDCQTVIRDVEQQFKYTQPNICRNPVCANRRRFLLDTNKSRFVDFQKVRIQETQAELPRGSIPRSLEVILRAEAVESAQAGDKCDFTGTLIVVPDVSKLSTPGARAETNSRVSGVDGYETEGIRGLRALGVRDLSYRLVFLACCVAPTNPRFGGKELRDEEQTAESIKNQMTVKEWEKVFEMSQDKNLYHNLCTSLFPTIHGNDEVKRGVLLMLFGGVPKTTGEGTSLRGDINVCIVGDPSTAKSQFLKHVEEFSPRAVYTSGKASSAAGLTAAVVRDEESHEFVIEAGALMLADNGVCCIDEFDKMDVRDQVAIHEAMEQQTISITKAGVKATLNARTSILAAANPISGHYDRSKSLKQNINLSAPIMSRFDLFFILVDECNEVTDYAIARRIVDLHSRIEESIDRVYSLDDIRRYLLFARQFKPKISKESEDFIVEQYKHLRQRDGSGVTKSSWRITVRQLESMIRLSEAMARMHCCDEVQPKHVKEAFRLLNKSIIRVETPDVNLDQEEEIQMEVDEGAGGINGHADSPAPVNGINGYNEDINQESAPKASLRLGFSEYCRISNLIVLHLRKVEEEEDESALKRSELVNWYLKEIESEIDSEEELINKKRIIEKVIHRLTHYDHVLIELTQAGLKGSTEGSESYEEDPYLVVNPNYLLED

Compound in the assay: CN[C@@H]1C[C@H]2O[C@@](C)([C@@H]1OC)n1c3ccccc3c3c4c(c5c6ccccc6n2c5c31)C(=O)NC4 [staurosporine]
Nature of the assay: log2 fold change of tryptic peptide abundance, ligand vs vehicle (limited proteolysis) (log2 ratio); higher = more trypsin-susceptible (destabilized). Conditions: ligand concentration: 20 uM; sample: K562 cleared lysate; digestion: 4 min, 22 C (HT-PELSA RT4min, Orbitrap Astral).
Regarding “ITPR3 (peptide sequence: LQHAAQMEQK, peptide start residue: 93) (UniProt Q14573)”, the log2 fold change came out at 0.807. With “PLS1 (peptide sequence: SLADGILLCK, peptide start residue: 158) (UniProt Q14651)”, the log2 fold change amounted to 0.311. Take “UniProt Q13474 (peptide sequence: MQILEDHNK, peptide start residue: 3332)”: the log2 fold change came to 0.0203. With “PDAP1 (peptide sequence: KQREEAAR, peptide start residue: 148) (UniProt Q13442)”, the log2 fold change is 1.37. In the case of “UniProt Q15046 (peptide sequence: INMVEELEK, peptide start residue: 394)”, the log2 fold change stood at 0.4. For “UniProt Q14240 (peptide sequence: LQAEAPHIVVGTPGR, peptide start residue: 148)” the value was 0.372. As for “MCM6 (peptide sequence: VYPYLCR, peptide start residue: 86) (UniProt Q14566)”, the log2 fold change was determined as 0.26. Turning to “LBR (peptide sequence: FADGEVVR, peptide start residue: 6) (UniProt Q14739)”, the log2 fold change was determined as 0.289.
